For the experiment, the target named is T1, TNFR-associated factor 2 (TRAF2) (human (endogenous in primary keratinocytes)) (UniProt Q12933).
T1 sequence: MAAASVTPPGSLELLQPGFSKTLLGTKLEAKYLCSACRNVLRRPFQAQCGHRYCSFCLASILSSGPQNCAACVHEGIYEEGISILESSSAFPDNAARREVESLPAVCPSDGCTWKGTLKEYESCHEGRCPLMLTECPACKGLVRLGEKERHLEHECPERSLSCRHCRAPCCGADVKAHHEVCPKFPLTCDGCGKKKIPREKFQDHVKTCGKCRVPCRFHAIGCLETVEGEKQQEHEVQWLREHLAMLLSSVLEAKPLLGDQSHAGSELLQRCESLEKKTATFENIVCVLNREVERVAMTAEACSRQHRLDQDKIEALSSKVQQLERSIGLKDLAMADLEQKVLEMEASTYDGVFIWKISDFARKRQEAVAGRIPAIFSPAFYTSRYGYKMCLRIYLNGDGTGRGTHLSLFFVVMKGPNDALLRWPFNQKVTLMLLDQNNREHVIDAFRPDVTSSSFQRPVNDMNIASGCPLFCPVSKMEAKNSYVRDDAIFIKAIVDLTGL
Kind of experiment: co-IP; lysates (RIPA buffer) of normal human primary keratinocytes, nonstimulated or TWEAK-stimulated (100 ng/ml); target IgG overnight at 4°C, protein G, Western blot; pairs with Fn14: TWEAK-stimulated cells.

These are yes or no findings as the source states them, for the method shown. In cells and extracts the contact can be indirect. Binding can be weak; no strength is given.

With TNF receptor 1 (TNFR1), the binding result was “binds”.

Source of the values: PMC6915140.
